# Results of single-concentration screens

The chains behind the UniProt entries cited, without tags or fusion partners. Residues count along the entry.
UniProt P9WNZ1, whole entry: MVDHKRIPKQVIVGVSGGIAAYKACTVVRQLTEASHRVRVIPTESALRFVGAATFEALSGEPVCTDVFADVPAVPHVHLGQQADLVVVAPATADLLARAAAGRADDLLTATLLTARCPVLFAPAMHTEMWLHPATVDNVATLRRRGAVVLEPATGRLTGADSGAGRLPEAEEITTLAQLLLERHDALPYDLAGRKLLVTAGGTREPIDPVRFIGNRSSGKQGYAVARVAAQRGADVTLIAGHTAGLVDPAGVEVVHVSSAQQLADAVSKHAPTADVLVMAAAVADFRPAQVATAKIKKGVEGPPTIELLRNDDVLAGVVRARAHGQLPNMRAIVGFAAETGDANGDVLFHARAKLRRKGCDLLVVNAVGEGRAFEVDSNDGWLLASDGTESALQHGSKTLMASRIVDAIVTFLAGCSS
UniProt Q4DA54, 1-478: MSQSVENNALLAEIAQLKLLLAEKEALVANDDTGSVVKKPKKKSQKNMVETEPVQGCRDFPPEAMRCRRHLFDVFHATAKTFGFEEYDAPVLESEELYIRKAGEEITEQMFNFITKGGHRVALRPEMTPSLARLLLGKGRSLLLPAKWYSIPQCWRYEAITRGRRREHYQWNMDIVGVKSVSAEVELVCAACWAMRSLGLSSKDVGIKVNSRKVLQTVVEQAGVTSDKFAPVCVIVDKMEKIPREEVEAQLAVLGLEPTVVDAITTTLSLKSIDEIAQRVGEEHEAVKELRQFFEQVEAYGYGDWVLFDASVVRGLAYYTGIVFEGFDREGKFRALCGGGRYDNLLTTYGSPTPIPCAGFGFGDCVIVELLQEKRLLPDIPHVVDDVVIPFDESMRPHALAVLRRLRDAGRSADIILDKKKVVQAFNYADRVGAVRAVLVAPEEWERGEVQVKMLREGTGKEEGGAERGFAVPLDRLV

From ChEMBL document CHEMBL3988442, “University of Dundee, Small-Polar-MMV Screening Library” (2021).

Results are given as percent effect. How 0% and 100% were set is not recorded. Most values in the screen are low, and negative values occur. The compounds are a random part of those screened. Two or more numbers in one place are separate tests of the same structure; such repeats can differ widely. A dash means the value is not listed here; it may have been measured.

A: 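Enzyme assay of CoaBC with a phosphate dye (Biomol Green) read at 650 nm. Target: Coenzyme A biosynthesis protein CoaBC, Mycobacterium tuberculosis (UniProt P9WNZ1). Concentration: 30 µM. Direction is inferred from only a few compounds that gave an IC50; most scored high, so higher reads as stronger inhibition. Most strong results did not repeat in a second test. Of about 67,000 compounds tested this way, about 40 (0.06%) reached 50% or more in at least one test.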
B: 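Histidine-tRNA ligase, Trypanosoma cruzi CL Brener (UniProt Q4DA54). Enzyme assay of histidyl-tRNA synthetase; the read-out is not stated. Compounds at 30 µM. Direction is inferred from retests: higher values go with stronger inhibition. Of about 69,000 compounds tested this way, about 31 (0.045%) reached 50% or more in at least one test.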

| structure | A | B |
|---|---|---|
| `Cc1oncc1C(=O)NCc1cc(=O)n2c(n1)CN(CC(C)C)CCC2` | 5.732 | 4 |
| `CCOc1cccc(CNc2ccccc2C(=O)OC)c1O` | 15.48 | 1.639 |
| `Cc1nc(CCCNC(=O)c2coc(CN3CCOCC3)c2)sc1C` | 6.024 | 3.191 |
| `COc1cc(C)nc(N2CCN(C(=O)c3cc(C)no3)CC2)n1` | -10.59 | 0.2907 |
| `O=C(c1cccc2cccnc12)N1CC[C@@]2(CCCO2)[C@@H](O)C1` | 3.337 | 2.281 |
| `Cc1c[nH]c(CN2CCCCC2CCN(C)C)c(C)c1=O` (configuration not stated) | 3.931 | 8.235 |
| `COCC(=O)N1CCN(C(=O)Cc2cccs2)[C@H]2CS(=O)(=O)C[C@H]21` | 0.1653 | 7 |
| `CCOCC(O)CN1CCN(C(=O)Cc2ccc3c(c2)CCO3)CC1` (configuration not stated) | 1.862 | 2.662 |
| `Cn1ccnc1CN1CCC2(CC1)COCCN(S(C)(=O)=O)C2` | 1.333 | 7.263 |
| `Cc1nc2ccnn2c(C)c1CCC(=O)N1CCN(CCO)CC1` | 2.477 | 2.312 |
| `c1cc(-c2noc(-c3cc(C4CC4)on3)n2)cc(N2CCCCC2)n1` | 1.463 | 6.494 |
| `CC(C)NC(=O)N1CCCC(Cn2cc(-c3ccc(F)cc3)nn2)C1` (configuration not stated) | 5.052 | -2.051 |
| `Cc1ccc(OC2CCN(S(=O)(=O)N(C)C)CC2)nc1` | 8.122 | 1.345 |
| `Cc1cc(CN(C)C(=O)C2CCCN(C(=O)c3ccc(Cl)cc3)C2)no1` (configuration not stated) | 3.182 | 0 |
| `Cc1cc2ccccc2n1CCC(=O)NCc1ncc[nH]1` | 1.389 | 3.784 |
| `CC(=O)N1CC(Cc2nccc3ccn(C)c23)C1` | 16.58 | -0.5464 |
| `CCc1ccc(CN(Cc2ccccc2)CC(C)CO)nc1` (configuration not stated) | 0 | -3.093 |
| `Cc1cnccc1N1CCCN(Cc2ccc(-c3cc[nH]n3)o2)CC1` | -47.75 | 5.682 |
| `CC(C)n1cc(CN2CCCN(C(=O)COC3CCCC3)CC2)cn1` | 10.31 | 3.488 |
| `Cc1nc(C)n(CC2CN(CCOc3cccc(C#N)c3)CCO2)n1` (configuration not stated) | 4.824 | 2.312 |
| `Cc1nc(CN2CCN(C(=O)c3sccc3C3CC3)CC2)oc1C` | -1.044 | -7.289 |
| `CNC(C)Cc1ccccc1Sc1ccc(O)cc1` (configuration not stated) | 12.98 | 11.34 |
| `CC(C)CO[C@@H]1CC[C@H]2[C@H]1OCCN2S(=O)(=O)C1CC1` | -3.083 | 3.81 |
| `CN(C)CC1(O)CCCN(c2ccnc3c(C(F)(F)F)cccc23)C1` (configuration not stated) | -1.908 | 7.212 |
| `CN(C)c1nc2c(c(=O)[nH]1)CCN(C(=O)c1c[nH]c(=O)c(Cl)c1)C2` | 3.421 | 1.685 |
| `CCN1CCC2(CC1)CC(NC(=O)c1csnn1)c1ccccc1O2` (configuration not stated) | 0.4926 | -2.062 |
| `CN(C)CCN(C)C(=O)Cn1cccc2cc(-c3ccc(F)cc3)nc1-2` | 14.22 | 9.398 |
| `CN1CCOC(CNC(=O)CCCOc2ccccc2F)C1` (configuration not stated) | -1.036 | 0 |
| `CN(C)c1ncc2c(c1C(=O)O)CCN(Cc1ccco1)C2` | 2.927 | 7.778 |
| `CCc1nc(CC(=O)NCC(Cc2ccc(F)cc2)C(N)=O)cs1` (configuration not stated) | 3.374 | -1.087 |
| `Cn1cc(CN2CCCC23CCN(C(=O)c2ccncc2)CC3)cn1` | 5.042 | 0.8264 |
| `CCN(Cc1noc(C)n1)C(=O)CCn1c(C)cc2ccccc21` | 8.554 | 0.5291 |
| `CCc1cc(C(=O)N2CC[C@@H](c3ccc4c(c3)OCO4)[C@H](O)C2)ccn1` | -11.25 | 7.2 |
| `c1cc(C2CCCN2CC2CCCCC2)n[nH]1` (configuration not stated) | 18.41 | 14.66 |
| `CC(c1cccc(O)c1)N(C)S(=O)(=O)c1cccnc1` (configuration not stated) | - | 3.896 |
| `Cc1ccc(-c2nc(CNC3CCc4ncnn4C3)co2)c(C)c1` (configuration not stated) | 0.4819 | 3.817 |
| `CCOCC(=O)N1CCC(C2CCN(Cc3ccc(Cl)cc3)C2)CC1` (configuration not stated) | 3.178 | 12.02 |
| `CC(C)n1cnnc1CN(C)C(=O)c1ccc[nH]1` | 4.034 | -0.8 |
| `C[C@H]1CN2C[C@H](O)CC2CN1Cc1ccc2nccnc2c1` (some centres not stated) | 21.62 & 17.01 | -0.7692 |
| `Cc1ccc(F)c(C(=O)Nc2c(C(N)=O)n[nH]c2C)c1` | 0.6369 | 4.972 |
| `CC(=O)N1CCN(CC(N)=O)CC(COc2ccccc2)C1` (configuration not stated) | -0.4902 | 9.574 |
| `COc1cccc(CNc2nc(N3CCOCC3)ns2)c1OC` | -7.393 | 8.333 |
| `COc1ccc(C(=O)N2CCC(c3nccn3C(C)C)CC2)cc1OC` | 7.358 | -4.523 |
| `CC(=O)N(C)C(c1cccc(F)c1)c1ccccn1` (configuration not stated) | -0.2389 | 4.571 |
| `O=C(CCCn1cncn1)N1CCCCC1c1nccs1` (configuration not stated) | -0.7317 | 1.299 |
| `Cc1nc(Cn2cc(I)cc(C)c2=O)oc1C` | -0.6424 | 4.712 |
| `CCn1cc(C#N)c(=O)c2cc(Br)ccc21` | 1.845 | 8.046 |
| `N#Cc1ccc(OCC(O)CN2CCC(Cn3cccn3)CC2)cc1` (configuration not stated) | -6.434 | 5.413 |
| `O=C1CC[C@@H](CN(Cc2ccncc2)Cc2nc(-c3cccs3)no2)N1` | 5.411 | 2.4 |
| `Cc1cc(-c2cnc(N3CCCC3)nc2C(C)C)on1` | -13.56 | 4.52 |
| `COc1ncnc2c1CCN(Cc1cccs1)CC2` | 1.29 | 4.478 |
| `CN1C(=O)C(c2ccccc2)CC12CCN(CCO)CC2` (configuration not stated) | -2.096 | 6.667 |
| `COc1ccc(CN(C)[C@@H]2CN(C(=O)c3cccnc3)C[C@H]2O)cc1` | 1.225 | 7.447 |
| `CC(=O)N1CC2(CCNCC2)c2cc(Cl)ccc21` | 0.9412 | 8.173 |
| `c1ccc(OCc2noc(CN3CCC(N4CCSCC4)CC3)n2)cc1` | 10 | 4.865 |
| `Cc1cc(C(=O)NC2(C#N)CCCC2)c(C)n1-c1cccnc1` | 1.442 | 6.329 |
| `Cc1nn(C)c(Cl)c1C1CCCN1C(=O)c1ccoc1C` (configuration not stated) | -3.509 | -1.163 |
| `CC(C)Cc1ncc2c(n1)CN(C(=O)c1ccc(Cn3ccnc3)o1)C2` | 4.37 | 8.939 |
| `Cc1ccc2c(c1)C(=O)NCC1(CCN(C(=O)c3ccnn3C)CC1)O2` | 1.859 | 4.494 |
| `CN(C)c1ccc2c(c1)CN(C(=O)c1ccnnc1)C2c1cnco1` (configuration not stated) | - | 0 |
| `CC(=O)c1cccc(S(=O)(=O)N2CCC(c3noc(C)n3)CC2)c1` | - | 7.006 |
| `COc1cc2nc3n(c(=O)c2cc1OC)CCN(C)CC3` | -6.389 | -0.5405 |
| `c1cncc(CN2CCCn3nnc(COCC4CC4)c3C2)c1` | 4.821 | 8.163 |
| `O=C(Cn1c(=O)oc2ccccc21)NCC1(O)CCc2ccccc21` (configuration not stated) | 0 | 4.848 |
| `Cc1noc(C)c1CN1CCN(C(=O)C(C(C)C)n2cncn2)CC1` (configuration not stated) | 4.061 | 3.139 |